These results are taken from publication PMC4748814.

Amino acid sequences for entries named in this document (tags omitted).
UniProt P0A6X3: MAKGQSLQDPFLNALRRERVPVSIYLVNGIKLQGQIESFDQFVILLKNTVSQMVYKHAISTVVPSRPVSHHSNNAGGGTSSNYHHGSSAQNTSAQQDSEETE

No constants are given. Whether binding was seen depends on the method and setting. In cells and extracts the contact can be indirect. Some entries that bind do so weakly or less than the wild type. Tags and fused reporters may be left off the sequences shown.

For this experiment, the target named is T1, PNPase-FLAG (polynucleotide phosphorylase with a C-terminal 3xFLAG tag, expressed from the chromosomal pnp locus) (E. coli) (UniProt P05055).
T1 sequence: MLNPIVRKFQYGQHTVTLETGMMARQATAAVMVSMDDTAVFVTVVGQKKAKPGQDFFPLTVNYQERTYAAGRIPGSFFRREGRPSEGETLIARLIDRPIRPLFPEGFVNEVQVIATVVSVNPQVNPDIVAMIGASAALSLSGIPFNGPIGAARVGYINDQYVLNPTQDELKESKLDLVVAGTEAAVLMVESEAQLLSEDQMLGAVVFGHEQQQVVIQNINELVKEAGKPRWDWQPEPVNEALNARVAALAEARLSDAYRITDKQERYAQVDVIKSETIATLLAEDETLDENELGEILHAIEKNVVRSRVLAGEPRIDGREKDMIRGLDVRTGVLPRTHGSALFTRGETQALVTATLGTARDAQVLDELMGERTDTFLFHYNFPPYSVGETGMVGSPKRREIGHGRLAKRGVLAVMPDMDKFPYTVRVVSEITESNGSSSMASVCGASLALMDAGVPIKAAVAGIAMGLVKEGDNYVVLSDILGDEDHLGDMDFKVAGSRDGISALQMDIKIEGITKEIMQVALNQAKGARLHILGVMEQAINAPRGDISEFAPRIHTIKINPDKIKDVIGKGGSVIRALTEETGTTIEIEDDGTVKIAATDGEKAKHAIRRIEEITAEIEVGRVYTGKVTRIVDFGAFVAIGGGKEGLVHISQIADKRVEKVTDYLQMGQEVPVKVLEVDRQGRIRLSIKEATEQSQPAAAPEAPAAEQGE
The experiment is described as follows: co-IP; PNPase-FLAG immunoprecipitated with anti-FLAG M2 agarose from lysates of late exponential phase E. coli cultures (OD600 1.0), TBS pH 7.4, 4 °C; in vivo formaldehyde crosslinking before purification, crosslinks reversed afterwards; elution with 3xFLAG peptide; Western blot with anti-Hfq.

In the case of “Hfq (endogenous) (from UniProt P0A6X3 1-102)”, the binding result is “binds”.
